Test results from publication PMC9678916.
Results are given in words; binding and its absence hold for the method and conditions named. In cells and extracts the contact can be indirect. Some binding calls cover weakened binding; strength is not graded here.

Sequences of proteins named here, by UniProt entry; tags and fusion partners are left off.
UniProt P11147: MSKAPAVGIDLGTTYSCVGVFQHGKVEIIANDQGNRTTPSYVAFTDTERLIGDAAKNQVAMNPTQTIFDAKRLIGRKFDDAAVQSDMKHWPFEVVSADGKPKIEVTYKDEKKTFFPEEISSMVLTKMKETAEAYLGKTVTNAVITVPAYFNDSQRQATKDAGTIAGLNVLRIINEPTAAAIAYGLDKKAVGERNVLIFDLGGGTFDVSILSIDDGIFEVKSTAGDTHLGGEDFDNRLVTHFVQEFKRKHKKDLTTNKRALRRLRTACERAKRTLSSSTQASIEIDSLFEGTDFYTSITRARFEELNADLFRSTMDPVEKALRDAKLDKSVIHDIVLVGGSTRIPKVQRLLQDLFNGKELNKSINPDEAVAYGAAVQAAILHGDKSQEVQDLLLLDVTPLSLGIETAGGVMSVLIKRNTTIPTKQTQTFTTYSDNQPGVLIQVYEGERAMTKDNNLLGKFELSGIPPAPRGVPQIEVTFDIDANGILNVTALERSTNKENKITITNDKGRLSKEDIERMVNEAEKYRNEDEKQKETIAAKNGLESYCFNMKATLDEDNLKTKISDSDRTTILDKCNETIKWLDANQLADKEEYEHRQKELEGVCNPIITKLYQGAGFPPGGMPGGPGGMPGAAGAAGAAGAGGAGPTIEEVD

Target: T1, Relish, whole protein (~110 kDa) (Drosophila (endogenous in eye imaginal discs)) (UniProt Q94527)
T1 sequence: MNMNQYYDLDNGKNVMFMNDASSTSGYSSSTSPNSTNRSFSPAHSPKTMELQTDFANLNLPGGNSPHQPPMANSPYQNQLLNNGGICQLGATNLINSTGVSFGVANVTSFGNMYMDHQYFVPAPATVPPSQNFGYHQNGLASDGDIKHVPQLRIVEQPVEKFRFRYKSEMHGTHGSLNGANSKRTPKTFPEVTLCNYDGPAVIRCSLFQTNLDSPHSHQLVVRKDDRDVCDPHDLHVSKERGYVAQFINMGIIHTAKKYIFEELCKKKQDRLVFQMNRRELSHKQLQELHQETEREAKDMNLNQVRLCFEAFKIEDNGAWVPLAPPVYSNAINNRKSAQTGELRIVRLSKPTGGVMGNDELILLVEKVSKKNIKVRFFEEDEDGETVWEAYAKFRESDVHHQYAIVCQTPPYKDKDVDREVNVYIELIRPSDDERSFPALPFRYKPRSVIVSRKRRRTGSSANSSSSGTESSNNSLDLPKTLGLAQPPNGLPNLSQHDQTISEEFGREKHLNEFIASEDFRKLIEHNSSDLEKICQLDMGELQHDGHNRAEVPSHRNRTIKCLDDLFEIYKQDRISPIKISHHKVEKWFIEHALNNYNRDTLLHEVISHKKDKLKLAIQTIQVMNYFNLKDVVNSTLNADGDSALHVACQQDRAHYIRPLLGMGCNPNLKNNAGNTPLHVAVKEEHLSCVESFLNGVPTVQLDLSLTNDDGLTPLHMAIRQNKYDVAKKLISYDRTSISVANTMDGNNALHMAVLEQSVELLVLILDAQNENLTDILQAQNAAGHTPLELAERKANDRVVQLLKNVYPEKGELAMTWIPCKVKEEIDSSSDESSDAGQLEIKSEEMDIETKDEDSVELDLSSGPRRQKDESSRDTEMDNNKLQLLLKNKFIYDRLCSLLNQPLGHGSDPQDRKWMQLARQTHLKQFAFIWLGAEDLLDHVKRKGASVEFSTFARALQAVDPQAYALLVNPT
Experiment: co-IP; Relish precipitated with anti-Relish (IP2) from eye disc lysate of GMR-GAL4:UAS-127Q.HA third instar larvae; RIPA buffer, Protein G-Dynabeads, 4°C overnight; Western blot of the eluate

binding: binds
Substance: Hsc70 (heat shock cognate 70; Hsc70-4, the Drosophila homolog of human HSPA8) (from UniProt P11147 1-651)
